The target of the test is Grp78 (Bip), mouse testis (mouse (endogenous in testis)) (UniProt P20029). In words: co-IP; mouse testis lysate (400 ug protein, RIPA lysis buffer with 1% NP-40, 0.15 M NaCl, pH 7.4), precleared with normal rabbit serum, antibody overnight at room temperature, Protein A/G PLUS-agarose, Western blot.

Protein sequences, listed by entry. Tags and fused reporters are not part of them. Lines headed by an entry give the natural chain unless they say otherwise; changes in a name come on top. Residues count along the entry.
UniProt P20029, residues 20-655: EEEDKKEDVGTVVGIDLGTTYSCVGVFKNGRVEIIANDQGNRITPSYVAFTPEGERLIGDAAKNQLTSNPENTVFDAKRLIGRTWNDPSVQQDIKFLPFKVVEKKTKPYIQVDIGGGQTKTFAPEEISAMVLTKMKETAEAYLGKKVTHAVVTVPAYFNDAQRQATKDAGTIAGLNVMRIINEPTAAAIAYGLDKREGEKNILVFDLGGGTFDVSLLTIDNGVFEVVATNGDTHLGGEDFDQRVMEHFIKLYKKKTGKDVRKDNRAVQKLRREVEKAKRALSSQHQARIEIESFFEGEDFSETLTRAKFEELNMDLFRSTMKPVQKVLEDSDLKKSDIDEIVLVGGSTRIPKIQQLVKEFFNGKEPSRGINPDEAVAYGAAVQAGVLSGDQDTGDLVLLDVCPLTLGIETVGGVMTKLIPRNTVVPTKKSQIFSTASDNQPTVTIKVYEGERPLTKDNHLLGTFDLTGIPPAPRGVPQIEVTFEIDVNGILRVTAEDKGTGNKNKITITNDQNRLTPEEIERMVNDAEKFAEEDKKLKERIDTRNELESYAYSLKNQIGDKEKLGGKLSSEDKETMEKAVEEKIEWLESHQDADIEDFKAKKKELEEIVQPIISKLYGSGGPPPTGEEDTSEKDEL
UniProt Q60932: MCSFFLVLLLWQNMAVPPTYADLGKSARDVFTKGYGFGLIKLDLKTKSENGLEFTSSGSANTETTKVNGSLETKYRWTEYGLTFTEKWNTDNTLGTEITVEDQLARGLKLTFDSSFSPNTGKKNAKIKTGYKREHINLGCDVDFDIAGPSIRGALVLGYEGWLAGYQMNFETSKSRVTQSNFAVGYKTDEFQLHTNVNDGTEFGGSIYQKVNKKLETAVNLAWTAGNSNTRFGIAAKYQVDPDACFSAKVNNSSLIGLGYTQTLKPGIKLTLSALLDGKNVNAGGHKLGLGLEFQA

These are yes or no findings as the source states them, for the method shown. Binding seen in cells or lysates may run through a third protein. Binding calls can cover weak binding; strength is not graded here.

Consider “VDAC1, mouse testis (from UniProt Q60932)”, for which the binding entry is recorded as “binds”.

(Values after publication PMC4970767.)
